Measurements from patent US8697376B2 (Lifesensors, INc., priority 2010, dated 2014).

Assay: general procedure: Fmoc solid-phase peptide synthesis; 2-chlorotrityl resin; HBTU/HOBt-H2O/DIPEA
Conditions: conjugation step, two steps (cleavage + coupling)

Substance: Cbz-Leu-Leu-Leu proteasome substrate bearing a dansyl fluorophore
- conjugation yield: 35% for two steps
